Reference: publication PMC6683157
Results are given in words; binding and its absence hold for the method and conditions named. Some results given as binding are weak or reduced against the parent protein; the word gives no strength. For some of these results: Tags and fused reporters may be left off the sequences shown.

Protein sequences, listed by entry. Tags and fused reporters are not part of them.
UniProt P27695: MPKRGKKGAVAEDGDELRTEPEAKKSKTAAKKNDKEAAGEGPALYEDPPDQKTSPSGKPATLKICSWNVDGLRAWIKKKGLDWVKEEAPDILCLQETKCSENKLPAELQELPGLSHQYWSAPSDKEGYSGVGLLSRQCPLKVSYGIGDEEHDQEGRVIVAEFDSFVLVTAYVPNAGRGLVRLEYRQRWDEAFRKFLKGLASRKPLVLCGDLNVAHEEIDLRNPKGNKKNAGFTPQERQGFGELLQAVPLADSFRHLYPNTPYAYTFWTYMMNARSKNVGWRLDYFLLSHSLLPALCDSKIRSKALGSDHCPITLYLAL

T1: Csm2-Psy3 heterodimer (S. cerevisiae) (UniProt P40465+Q12318)
T1 sequence 1: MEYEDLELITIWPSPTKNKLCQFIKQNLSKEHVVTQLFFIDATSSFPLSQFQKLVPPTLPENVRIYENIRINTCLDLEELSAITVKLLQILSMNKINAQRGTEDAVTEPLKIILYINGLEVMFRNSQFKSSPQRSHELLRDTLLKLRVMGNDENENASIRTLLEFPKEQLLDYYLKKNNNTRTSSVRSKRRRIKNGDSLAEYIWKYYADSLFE
T1 sequence 2: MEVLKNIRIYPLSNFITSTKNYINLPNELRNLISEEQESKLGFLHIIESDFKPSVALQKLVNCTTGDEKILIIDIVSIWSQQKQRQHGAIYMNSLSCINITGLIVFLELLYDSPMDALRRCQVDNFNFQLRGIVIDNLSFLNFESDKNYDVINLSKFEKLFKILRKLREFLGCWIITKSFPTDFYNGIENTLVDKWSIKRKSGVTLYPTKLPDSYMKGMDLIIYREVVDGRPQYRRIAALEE

T2: Csm2 (6XHIS-TEV tagged, co-expressed with Psy3) (S. cerevisiae) (UniProt P40465)
T2 sequence: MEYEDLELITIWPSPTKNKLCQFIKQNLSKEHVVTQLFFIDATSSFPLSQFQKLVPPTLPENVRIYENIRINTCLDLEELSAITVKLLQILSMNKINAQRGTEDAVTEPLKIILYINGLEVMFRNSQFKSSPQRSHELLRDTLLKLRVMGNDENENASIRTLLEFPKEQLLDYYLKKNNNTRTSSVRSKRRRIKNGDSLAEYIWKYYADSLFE

T3: Csm2-KRRR (Csm2-K189A/R190A/R191A/R192A, 6XHIS-TEV tagged) (S. cerevisiae) (UniProt P40465)
T3 sequence: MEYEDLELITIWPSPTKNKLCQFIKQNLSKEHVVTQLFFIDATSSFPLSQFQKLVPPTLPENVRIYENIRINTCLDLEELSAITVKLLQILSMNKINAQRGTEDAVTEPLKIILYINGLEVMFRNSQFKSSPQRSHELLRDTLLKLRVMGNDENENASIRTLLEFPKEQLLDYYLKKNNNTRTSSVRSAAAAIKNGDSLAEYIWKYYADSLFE

T4: 6XHIS-Shu1 (S. cerevisiae) (UniProt P38751)
T4 sequence: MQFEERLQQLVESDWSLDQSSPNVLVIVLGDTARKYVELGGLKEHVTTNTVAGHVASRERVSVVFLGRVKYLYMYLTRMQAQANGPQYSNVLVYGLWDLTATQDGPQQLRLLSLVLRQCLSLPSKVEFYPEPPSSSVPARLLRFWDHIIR


What was measured:
[1] = biological target: T1, Csm2-Psy3 heterodimer (S. cerevisiae); test: pull-down; 25 μL Ni beads with 1 μM APE1 and 1 μM Csm2-Psy3; 20 mM Tris pH 8.0, 50 mM NaCl, 5 mM MgOAc2, 5% glycerol, 1 mM DTT, 2 mM ATP, 0.5 mg/mL BSA; overnight at 4 °C; SDS-PAGE; both purified
[2] = biological target: T2, Csm2 (6XHIS-TEV tagged, co-expressed with Psy3) (S. cerevisiae); test: SEC; Sephacryl S200; Tris pH 8.0, 1 M NaCl, 1 mM beta-mercaptoethanol, 8% glycerol; co-purified complex, peak checked by SDS-PAGE; both purified
[3] = biological target: T3, Csm2-KRRR (Csm2-K189A/R190A/R191A/R192A, 6XHIS-TEV tagged) (S. cerevisiae); test: as above
[4] = biological target: T2, Csm2 (6XHIS-TEV tagged, co-expressed with Psy3) (S. cerevisiae); test: co-purification (nickel affinity chromatography); Csm2 and Psy3 co-expressed in E. coli; lysate on nickel resin, held by the N-terminal His6-tag on Csm2; 20 mM Tris pH 8.0, 500 mM NaCl, washes with 10, 15 and 20 mM imidazole, elution with 250 mM imidazole
[5] = biological target: T3, Csm2-KRRR (Csm2-K189A/R190A/R191A/R192A, 6XHIS-TEV tagged) (S. cerevisiae); test: as above
[6] = biological target: T4, 6XHIS-Shu1 (S. cerevisiae); test: SEC; SuperDex 200 in buffer with 150 mM KCl, after Ni-NTA and amylose resin; 6XHIS-Shu1 and MBP-Shu2 co-expressed in E. coli; both purified

Molecule	binding [1]	binding [2]	binding [3]	binding [4]	binding [5]	binding [6]
human APE1 (from UniProt P27695 1-318) (enzyme)	no binding (tested: 1 μM of APE1 and 1 μM Csm2-Psy3)	–	–	–	–	–
Psy3 (co-expressed with His6-Csm2) (protein, UniProt Q12318 1-242) MEVLKNIRIYPLSNFITSTKNYINLPNELRNLISEEQESKLGFLHIIESDFKPSVALQKLVNCTTGDEKILIIDIVSIWSQQKQRQHGAIYMNSLSCINITGLIVFLELLYDSPMDALRRCQVDNFNFQLRGIVIDNLSFLNFESDKNYDVINLSKFEKLFKILRKLREFLGCWIITKSFPTDFYNGIENTLVDKWSIKRKSGVTLYPTKLPDSYMKGMDLIIYREVVDGRPQYRRIAALEE	–	binds	binds	binds	binds	–
Psy3-KRK (Psy3-K199A/R200A/K201A) (protein, UniProt Q12318 1-242) MEVLKNIRIYPLSNFITSTKNYINLPNELRNLISEEQESKLGFLHIIESDFKPSVALQKLVNCTTGDEKILIIDIVSIWSQQKQRQHGAIYMNSLSCINITGLIVFLELLYDSPMDALRRCQVDNFNFQLRGIVIDNLSFLNFESDKNYDVINLSKFEKLFKILRKLREFLGCWIITKSFPTDFYNGIENTLVDKWSIAAASGVTLYPTKLPDSYMKGMDLIIYREVVDGRPQYRRIAALEE	–	binds	binds	binds	binds	–
MBP-Shu2 (protein, UniProt P38957 1-223) MSKDVIEYSKLFAKLVNTNDDTKLDDTIASFLYYMFPRELFIRAISLLESSDMFIYILDRVHNKEGNEHTSLIDVLVDEFYKGSSNSLLEYRLIVKDTNDGAPPILVDIAHWFCSCEEFCKYFHEALEKTDEKEELHDVLINEVDDHLQFSDDRFAQLDPHSLSKQWYFKFDKVCCSHLLAFSILLRSSINVLKFFTVNSNKVFVIAIDNIDEWLNLHINIVE	–	–	–	–	–	binds
